Test results published in PubChem BioAssay AID624297 (National Center for Advancing Translational Sciences (NCATS), 2012).
About 6,200 (1.8%) of roughly 340,000 compounds were called active. Inconclusive results, whose numbers are uncertain, are shown with a selection of clear calls. Calls come from the whole dose curve; as a rule, active = well fitted activation curve with a large enough effect; inconclusive = small, poorly fitted or top-dose-only effect; inactive = no such curve, though single readings can be large or run the other way. Potencies beside an inconclusive call are fits to weak or partial responses and may not hold up.

Experiment: A quantitative high throughput screen for small molecules that induce DNA re-replication in SW480 colon adenocarcinoma cells. Note: nearly all actives have a fitted effect of over 55% in size.
Conditions: Hoechst DNA content imaging, 48 h; series mostly up to 46.1 µM
Method in brief: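 250 cells/well; 23 nL cpd via pin tool; 48 hr, 37 C, 5% CO2; Hoechst 40 min; imager read of total nuclear intensity, ex 405/em 500-530 nm.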
Potency is the fitted concentration of half-maximal effect.

SMILES | Potency
Cc1ccc(NC(=O)C(NC2CCCc3ccccc32)c2ccccc2)c([N+](=O)[O-])c1 (stereo not given) | inconclusive: 23.1 µM [activator, partial curve, poor fit]
Cc1cc(C)cc(N2C(=O)CC(N3CCOCC3)C2=O)c1 (stereo not given) | inactive
Cc1ccc(C)c(NC(=O)CSc2nncn2C)c1 | inactive
Cc1nnc(N2CCCC(C(=O)NCc3ccc(OC(C)C)cc3)C2)c2nn(-c3ccccc3)c(C)c12 (stereo not given) | inconclusive: 29.1 µM [activator, single point]
CC(C)(C)NS(=O)(=O)c1ccc(C(=O)Nc2ccc3c(c2)OCO3)cc1 | inconclusive: 16.4 µM [activator, single point]
O=C1CC(N2CCN(Cc3ccc4c(c3)OCO4)CC2)C(=O)N1CCc1ccccc1 (stereo not given) | inactive
COc1ccc(C(C(=O)NC(C)(C)C)N(C(=O)CNC(=O)c2cccs2)c2ccc(NC(C)=O)cc2)cc1OC (stereo not given) | inconclusive: 29.1 µM [activator, single point]
Cc1nn(-c2ccccc2)c(N2CCCC2)c1/C=N/NC(=O)c1cc(-c2ccccn2)nc2ccccc12 | inactive
CSc1n[nH]c(NCc2ccccc2)n1 | inactive
COC(C(=O)N/N=C/c1ccc(OCC(=O)N2CCOCC2)cc1)c1ccccc1 (stereo not given) | inactive
Cc1noc(C)c1CSc1nc2ccccc2c(=O)n1-c1ccc(Cl)cc1 | inconclusive: 29.1 µM [activator, single point]
CC(NC(=O)c1ccc([N+](=O)[O-])o1)C12CC3CC(CC(C3)C1)C2 (stereo not given) | inconclusive: 5.17 µM [activator, full curve]
CCOc1cc(/C=C\c2[nH]c(=O)[nH]c(=O)c2[N+](=O)[O-])ccc1OC(C)CC (stereo not given) | active: 23.1 µM
O=C(CN(Cc1ccco1)C(=O)c1ccccc1)Nc1ccc(Cl)c(Cl)c1 | inconclusive: 29.1 µM [activator, partial curve, poor fit]
Cc1ccc(Cn2c(N)c(S(=O)(=O)c3cccs3)c3nc4ccccc4nc32)cc1 | inconclusive: 29.1 µM [activator, single point]
COc1ccccc1C(NC(C)=O)c1cc(Cl)c2cccnc2c1O (stereo not given) | active: 0.58 µM
CCOC(=O)c1cc(-c2ccc(/C=C3/C(=O)N(c4ccc(C(=O)O)cc4)N=C3C)o2)ccc1Cl | inconclusive: 20.6 µM [activator, single point]
CC1COCC(C)N1C1=C(Cl)C(=O)c2ccccc2C1=O (stereo not given) | inconclusive: 20.6 µM [activator, single point]
C[C@H]1CN=C(Nc2ccccc2)N1CCC1CCCCC1 | inactive
CS(=O)(=O)N(CC(=O)NCC1CCCO1)c1cccc(Cl)c1 (stereo not given) | inconclusive: 18.4 µM [activator, partial curve]
O=C(c1cccs1)N1CCCC(N2CCN(c3cccc(C(F)(F)F)c3)CC2)C1 (stereo not given) | inconclusive: 25.9 µM [activator, partial curve, poor fit]
CCn1nc(NC(=O)COC)c2cc3cc(C)ccc3nc21 | active: 23.1 µM
Cc1nc2ccc(C(=O)Nc3cccc([N+](=O)[O-])c3)cc2s1 | inactive

SMILES | Potency
Cc1cccc(-c2ncc(S(=O)(=O)C(C)(C)C)c(N)n2)c1 | inactive
Brc1ccc(-c2nnc3sc(CN4CCc5ccccc5C4)cn23)cc1 | inconclusive: 29.1 µM [activator, partial curve, poor fit]
COc1cc2c(C(=O)N3CCN(c4ccccc4)CC3)c(C)oc2cc1Br | inconclusive: 29.1 µM [activator, single point]
O=C(/C=C/c1ccc(-c2ccccc2[N+](=O)[O-])o1)c1ccc(Br)cc1 | inconclusive: 0.58 µM [activator, full curve, poor fit]
NCC1CC2c3ccccc3C1c1ccccc12 (stereo not given) | active: 23.1 µM
CC(CNC(=O)CN1C(=O)COc2ccc(S(=O)(=O)N3CCCCC3)cc21)c1ccccc1 (stereo not given) | inconclusive: 18.4 µM [activator, single point]
CC(/C=C/c1ccco1)=N/NC(=O)Cc1cccs1 | inconclusive: 35.5 µM [activator, single point]
O=C(NCCN1CCCC1)C(c1ccccc1)c1ccccc1 | inconclusive: 5.8 µM [activator, single point]
O=C(NCC1CCCO1)c1c(O)nc2sccn2c1=O (stereo not given) | inactive
COC(=O)c1ccccc1S(=O)(=O)NNC(=O)C1COc2ccccc2O1 (stereo not given) | inconclusive: 29.1 µM [activator, single point]
COc1ccc(S(=O)(=O)N2CCN(CC(O)CN3CCOCC3)CC2)cc1 (stereo not given) | inactive
CC(/C=N/NC(=O)CSc1ccccn1)=C\c1ccc(C(C)C)cc1 | inconclusive: 16.4 µM [activator, single point]
O=C(NC1CCCCCC1)C1CCC(=O)N(Cc2ccccc2F)C1 (stereo not given) | inconclusive: 18.4 µM [activator, single point]
COc1ccc(CC(=O)Nc2nc3n(n2)C(c2ccccc2)CC(=O)N3)cc1OC (stereo not given) | inconclusive: 2.91 µM [activator, full curve, poor fit]
COc1cccc(C(=O)NNC(=O)C(=O)Nc2cccc(Cl)c2C)c1 | active: 23.1 µM
COCc1c(C(=O)OCC(=O)N2c3ccccc3NC(=O)C2(C)C)oc2ccccc12 | inactive
O=Cc1ccc(-c2cccs2)s1 | inconclusive: 18.4 µM [activator, single point]
CC(=O)Nc1c(Cl)cnn(-c2ccccc2)c1=O | inactive
O=c1c(/C=C(\O)c2ccccc2)nc2ccccc2n1-c1ccccc1 | inconclusive: 11.6 µM [activator, partial curve, poor fit]
c1ccc(C(=NNc2nc3ccccc3s2)c2ccccn2)cc1 | active: 0.259 µM
CC(C)c1ccc(C2C3=C(COC3=O)Nc3cc4c(cc32)OCO4)cc1 (stereo not given) | inconclusive: 10.3 µM [activator, partial curve, poor fit]
COC(=O)c1ccccc1NC(=O)Cn1cnc2c1c(=O)n(C)c(=O)n2C | inconclusive: 6.51 µM [activator, single point]

Among those listed so far, two contain two or more sulfur atoms.
SMILES | Potency
Cc1ccc(Cn2c(N)c(S(=O)(=O)c3cccs3)c3nc4ccccc4nc32)cc1 | inconclusive: 29.1 µM [activator, single point]
O=Cc1ccc(-c2cccs2)s1 | inconclusive: 18.4 µM [activator, single point]
